Some of the results follow. Only hits are listed; about a third recur on repeated control peptides.
What was measured:
Assay in all cases: PRISMA enrichment of interactor (LFQ) in peptide spot vs all other peptide spots (log2 fold change); higher = stronger / more specific binding of the interactor to the peptide
[1] = target: ASL, P04424
Method: (§1)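 PRISMA: 15-aa overlapping tiles (offset 8 aa) of 60 microproteins, plus SOS1/GLUT1 control peptides, were spot-synthesized on cellulose membranes in triplicate. Membranes were incubated with benzonase-treated HEK293T lysate, and bound proteins were identified by LC-MS/MS with LFQ. Enrichment is the log2 fold change of each protein in one spot versus all other spots. Only interactors passing the significance cutoff are listed.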

Chains of the proteins cited; added tags and fusions are not shown.
ASL, P04424, UniProt P04424, whole entry: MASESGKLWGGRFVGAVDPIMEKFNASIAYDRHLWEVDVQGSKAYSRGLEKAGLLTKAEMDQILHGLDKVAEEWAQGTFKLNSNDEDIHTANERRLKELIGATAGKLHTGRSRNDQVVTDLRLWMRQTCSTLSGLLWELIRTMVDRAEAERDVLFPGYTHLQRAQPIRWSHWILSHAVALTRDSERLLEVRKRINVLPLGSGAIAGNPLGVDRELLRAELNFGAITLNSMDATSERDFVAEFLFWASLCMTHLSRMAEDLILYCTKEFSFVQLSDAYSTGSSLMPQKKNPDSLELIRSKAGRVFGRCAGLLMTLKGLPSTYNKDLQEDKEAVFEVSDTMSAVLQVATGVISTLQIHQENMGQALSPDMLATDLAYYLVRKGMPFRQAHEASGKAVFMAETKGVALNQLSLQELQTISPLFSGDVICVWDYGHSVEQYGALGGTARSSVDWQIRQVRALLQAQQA
SNRPG, P62308, UniProt P62308, whole entry: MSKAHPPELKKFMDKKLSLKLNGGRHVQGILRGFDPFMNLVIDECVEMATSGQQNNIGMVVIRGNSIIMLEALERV
TUBB6, Q9BUF5, UniProt Q9BUF5, whole entry: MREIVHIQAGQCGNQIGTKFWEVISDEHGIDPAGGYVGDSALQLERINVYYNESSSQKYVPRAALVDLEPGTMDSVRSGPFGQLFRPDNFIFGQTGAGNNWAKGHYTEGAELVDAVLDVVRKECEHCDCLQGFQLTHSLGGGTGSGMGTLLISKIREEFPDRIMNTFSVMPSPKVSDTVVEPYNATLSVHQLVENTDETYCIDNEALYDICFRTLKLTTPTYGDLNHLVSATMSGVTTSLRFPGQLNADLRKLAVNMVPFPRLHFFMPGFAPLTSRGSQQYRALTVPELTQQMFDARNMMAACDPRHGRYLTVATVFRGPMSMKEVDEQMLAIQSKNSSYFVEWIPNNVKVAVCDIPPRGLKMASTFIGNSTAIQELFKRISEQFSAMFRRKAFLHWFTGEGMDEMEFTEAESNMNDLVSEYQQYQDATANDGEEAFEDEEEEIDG
SNX1, Q13596, UniProt Q13596, whole entry: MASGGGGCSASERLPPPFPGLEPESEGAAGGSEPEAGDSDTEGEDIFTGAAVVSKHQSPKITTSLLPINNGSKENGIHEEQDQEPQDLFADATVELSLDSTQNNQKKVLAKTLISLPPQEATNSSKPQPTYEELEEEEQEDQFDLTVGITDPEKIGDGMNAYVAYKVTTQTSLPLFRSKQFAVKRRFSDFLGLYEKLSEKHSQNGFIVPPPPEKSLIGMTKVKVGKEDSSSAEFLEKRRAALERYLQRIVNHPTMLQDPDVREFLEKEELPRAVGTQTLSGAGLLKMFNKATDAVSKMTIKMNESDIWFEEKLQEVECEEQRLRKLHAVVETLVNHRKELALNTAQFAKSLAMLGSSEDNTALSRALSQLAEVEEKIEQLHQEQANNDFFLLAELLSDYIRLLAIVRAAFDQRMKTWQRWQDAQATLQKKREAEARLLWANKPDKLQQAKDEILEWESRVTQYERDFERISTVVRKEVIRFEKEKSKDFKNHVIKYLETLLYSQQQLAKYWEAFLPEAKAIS
PLK1, P53350, UniProt P53350, whole entry: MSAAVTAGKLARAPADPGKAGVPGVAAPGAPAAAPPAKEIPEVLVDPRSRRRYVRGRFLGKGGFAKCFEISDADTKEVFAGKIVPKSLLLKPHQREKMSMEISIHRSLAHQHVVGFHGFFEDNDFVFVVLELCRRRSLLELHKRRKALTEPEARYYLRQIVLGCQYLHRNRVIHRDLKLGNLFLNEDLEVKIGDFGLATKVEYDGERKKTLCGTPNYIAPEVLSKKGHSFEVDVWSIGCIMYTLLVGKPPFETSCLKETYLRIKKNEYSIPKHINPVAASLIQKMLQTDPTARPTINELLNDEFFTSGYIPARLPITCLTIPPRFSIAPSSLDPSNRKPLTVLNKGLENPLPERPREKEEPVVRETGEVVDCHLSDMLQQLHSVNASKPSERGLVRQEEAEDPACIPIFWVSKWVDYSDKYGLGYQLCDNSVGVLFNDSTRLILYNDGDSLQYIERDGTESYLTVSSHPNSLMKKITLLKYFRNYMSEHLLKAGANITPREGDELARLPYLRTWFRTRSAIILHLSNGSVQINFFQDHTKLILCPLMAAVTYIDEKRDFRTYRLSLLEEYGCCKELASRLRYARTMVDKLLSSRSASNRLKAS
SMARCA4, P51532, UniProt P51532, whole entry: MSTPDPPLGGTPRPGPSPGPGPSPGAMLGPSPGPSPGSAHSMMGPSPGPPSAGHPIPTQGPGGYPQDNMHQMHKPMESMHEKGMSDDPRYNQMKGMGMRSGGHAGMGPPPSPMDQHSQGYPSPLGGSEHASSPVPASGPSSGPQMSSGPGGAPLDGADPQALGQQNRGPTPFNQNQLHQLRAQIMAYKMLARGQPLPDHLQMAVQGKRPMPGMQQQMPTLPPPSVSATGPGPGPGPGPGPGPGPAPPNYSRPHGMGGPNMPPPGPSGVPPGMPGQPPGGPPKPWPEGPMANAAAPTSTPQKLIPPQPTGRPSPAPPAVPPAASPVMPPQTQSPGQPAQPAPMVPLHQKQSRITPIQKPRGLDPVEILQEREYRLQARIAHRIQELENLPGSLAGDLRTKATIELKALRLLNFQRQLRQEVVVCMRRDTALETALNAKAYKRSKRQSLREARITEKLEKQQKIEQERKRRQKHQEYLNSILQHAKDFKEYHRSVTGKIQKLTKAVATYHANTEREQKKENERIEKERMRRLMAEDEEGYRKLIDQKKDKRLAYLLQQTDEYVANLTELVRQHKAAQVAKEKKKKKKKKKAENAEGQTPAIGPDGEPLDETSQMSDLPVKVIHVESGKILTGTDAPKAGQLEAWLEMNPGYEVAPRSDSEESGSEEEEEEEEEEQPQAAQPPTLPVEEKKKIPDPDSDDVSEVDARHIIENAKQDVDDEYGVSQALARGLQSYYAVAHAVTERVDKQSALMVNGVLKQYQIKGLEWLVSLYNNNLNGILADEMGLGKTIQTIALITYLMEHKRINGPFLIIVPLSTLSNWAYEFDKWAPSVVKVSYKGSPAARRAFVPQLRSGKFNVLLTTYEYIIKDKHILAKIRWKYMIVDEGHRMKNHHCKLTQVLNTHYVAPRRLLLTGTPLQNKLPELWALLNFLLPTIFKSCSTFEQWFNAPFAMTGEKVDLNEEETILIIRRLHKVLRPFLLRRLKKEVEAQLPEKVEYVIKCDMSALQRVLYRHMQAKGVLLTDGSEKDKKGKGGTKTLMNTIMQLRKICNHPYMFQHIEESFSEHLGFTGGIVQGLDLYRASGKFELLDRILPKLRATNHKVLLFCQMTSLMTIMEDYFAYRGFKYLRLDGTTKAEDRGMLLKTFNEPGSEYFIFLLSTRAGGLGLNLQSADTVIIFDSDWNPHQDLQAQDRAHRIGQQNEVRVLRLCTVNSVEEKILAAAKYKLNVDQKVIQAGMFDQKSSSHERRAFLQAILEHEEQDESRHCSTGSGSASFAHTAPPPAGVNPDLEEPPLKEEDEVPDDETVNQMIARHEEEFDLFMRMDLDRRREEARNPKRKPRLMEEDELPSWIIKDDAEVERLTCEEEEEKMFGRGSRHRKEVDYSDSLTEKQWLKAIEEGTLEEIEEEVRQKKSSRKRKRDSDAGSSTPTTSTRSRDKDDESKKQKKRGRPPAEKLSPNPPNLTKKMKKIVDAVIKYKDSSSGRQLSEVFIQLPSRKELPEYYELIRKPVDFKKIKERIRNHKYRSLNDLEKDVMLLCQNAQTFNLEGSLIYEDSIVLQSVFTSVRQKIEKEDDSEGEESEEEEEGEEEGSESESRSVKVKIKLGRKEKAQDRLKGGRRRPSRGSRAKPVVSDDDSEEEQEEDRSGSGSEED
SOD1, P00441, UniProt P00441, whole entry: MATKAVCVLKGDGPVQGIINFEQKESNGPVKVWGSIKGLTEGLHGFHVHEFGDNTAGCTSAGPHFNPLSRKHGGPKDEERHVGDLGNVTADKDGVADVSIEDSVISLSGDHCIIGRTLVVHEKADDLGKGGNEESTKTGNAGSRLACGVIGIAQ
TUBGCP3, Q96CW5, UniProt Q96CW5, whole entry: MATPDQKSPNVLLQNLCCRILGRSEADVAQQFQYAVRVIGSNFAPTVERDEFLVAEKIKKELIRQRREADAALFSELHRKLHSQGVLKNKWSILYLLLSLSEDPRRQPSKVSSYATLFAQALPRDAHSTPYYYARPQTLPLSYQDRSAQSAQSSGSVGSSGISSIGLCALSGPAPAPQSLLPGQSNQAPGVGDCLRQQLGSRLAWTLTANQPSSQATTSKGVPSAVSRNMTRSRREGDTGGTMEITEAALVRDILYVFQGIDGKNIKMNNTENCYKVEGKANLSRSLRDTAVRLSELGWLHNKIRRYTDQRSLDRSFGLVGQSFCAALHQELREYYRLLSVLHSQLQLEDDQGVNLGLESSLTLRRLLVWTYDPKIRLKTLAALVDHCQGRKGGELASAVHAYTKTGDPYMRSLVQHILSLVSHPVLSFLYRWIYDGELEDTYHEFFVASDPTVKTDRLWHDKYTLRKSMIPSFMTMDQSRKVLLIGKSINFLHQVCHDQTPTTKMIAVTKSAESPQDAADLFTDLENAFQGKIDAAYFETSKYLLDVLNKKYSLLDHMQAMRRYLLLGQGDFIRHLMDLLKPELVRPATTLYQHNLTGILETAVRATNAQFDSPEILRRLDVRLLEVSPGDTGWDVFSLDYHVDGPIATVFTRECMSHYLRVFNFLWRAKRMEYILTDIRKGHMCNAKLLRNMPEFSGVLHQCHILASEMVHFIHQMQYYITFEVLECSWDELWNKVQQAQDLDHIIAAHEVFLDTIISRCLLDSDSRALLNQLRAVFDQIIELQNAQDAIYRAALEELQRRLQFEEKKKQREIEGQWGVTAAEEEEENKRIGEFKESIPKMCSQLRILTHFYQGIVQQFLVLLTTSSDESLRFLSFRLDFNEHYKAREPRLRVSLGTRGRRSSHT

[2] = target: COPE, O14579
Method: as §1

[3] = target: COQ8A, Q8NI60
Method: as §1

[4] = target: CPS1, P31327
Method: as §1

[5] = target: DDX51, Q8N8A6
Method: as §1

[6] = target: EI24, O14681
Method: as §1

[7] = target: FAM98A, Q8NCA5
Method: as §1

[8] = target: GYG1, P46976
Method: as §1

[9] = target: HOXB6, P17509
Method: as §1

[10] = target: MRPS7, Q9Y2R9
Method: as §1

[11] = target: PNISR, Q8TF01
Method: as §1

[12] = target: PRPF4, O43172
Method: as §1

[13] = target: RABL6, Q3YEC7
Method: as §1

[14] = target: RTRAF, Q9Y224
Method: as §1

[15] = target: SNRPG, P62308
Method: as §1

[16] = target: SRRM2, Q9UQ35
Method: as §1

[17] = target: TRAF7, Q6Q0C0
Method: as §1

[18] = target: TUBB6, Q9BUF5
Method: as §1

[19] = target: WDR46, O15213
Method: as §1

[20] = target: WTAP, Q15007
Method: as §1

[21] = target: ASMTL, O95671
Method: as §1

[22] = target: DCAF13, Q9NV06
Method: as §1

[23] = target: ELP1, O95163
Method: as §1

[24] = target: LARP1, Q6PKG0
Method: as §1

[25] = target: NCAPG, Q9BPX3
Method: as §1

[26] = target: PDCL3, Q9H2J4
Method: as §1

[27] = target: S100A9, P06702
Method: as §1

[28] = target: SCRIB
Method: as §1

[29] = target: SLC25A17, O43808
Method: as §1

[30] = target: SNRPN, P63162
Method: as §1

[31] = target: SNX1, Q13596
Method: as §1

[32] = target: ASNS, P08243
Method: as §1

[33] = target: AURKAIP1, Q9NWT8
Method: as §1

[34] = target: BOLA2, Q9H3K6
Method: as §1

[35] = target: CENPE, Q02224
Method: as §1

[36] = target: KHSRP, Q92945
Method: as §1

[37] = target: LEO1, Q8WVC0
Method: as §1

[38] = target: MAGED2, Q9UNF1
Method: as §1

[39] = target: MAGT1, Q9H0U3
Method: as §1

[40] = target: MRPS15, P82914
Method: as §1

[41] = target: MRPS33, Q9Y291
Method: as §1

[42] = target: PLK1, P53350
Method: as §1

[43] = target: REXO4, Q9GZR2
Method: as §1

[44] = target: SCYL1, Q96KG9
Method: as §1

[45] = target: SMARCA4, P51532
Method: as §1

[46] = target: SOD1, P00441
Method: as §1

[47] = target: SUPT5H, O00267
Method: as §1

[48] = target: THRAP3, Q9Y2W1
Method: as §1

[49] = target: TUBGCP3, Q96CW5
Method: as §1

[50] = target: UBAP2, Q5T6F2
Method: as §1

[51] = target: WDR12, Q9GZL7
Method: as §1

B1: PSMB8-AS1 (peptide)
chain: CRSLHHGPVAPLFLH
PRISMA enrichment of interactor (log2) [1]: 4.61 | PRISMA enrichment of interactor (log2) [2]: 4.91 | PRISMA enrichment of interactor (log2) [3]: 4.38 | PRISMA enrichment of interactor (log2) [4]: 6.35 | PRISMA enrichment of interactor (log2) [5]: 5.76 | PRISMA enrichment of interactor (log2) [6]: 6.41 | PRISMA enrichment of interactor (log2) [7]: 5.12 | PRISMA enrichment of interactor (log2) [8]: 4.38 | PRISMA enrichment of interactor (log2) [9]: 3.6 | PRISMA enrichment of interactor (log2) [10]: 7.23 | PRISMA enrichment of interactor (log2) [11]: 4.51 | PRISMA enrichment of interactor (log2) [12]: 5.85 | PRISMA enrichment of interactor (log2) [13]: 6.02 | PRISMA enrichment of interactor (log2) [14]: 5.5 | PRISMA enrichment of interactor (log2) [15]: 5.56 | PRISMA enrichment of interactor (log2) [16]: 6.18 | PRISMA enrichment of interactor (log2) [17]: 5.8 | PRISMA enrichment of interactor (log2) [18]: 4.55 | PRISMA enrichment of interactor (log2) [19]: 7.73 | PRISMA enrichment of interactor (log2) [20]: 4.44

B2: PVT1 (peptide)
chain: RPAHFRILKVVLREA
PRISMA enrichment of interactor (log2) [21]: 5.94 | PRISMA enrichment of interactor (log2) [22]: 5.15 | PRISMA enrichment of interactor (log2) [23]: 6.52 | PRISMA enrichment of interactor (log2) [24]: 5.95 | PRISMA enrichment of interactor (log2) [25]: 6.29 | PRISMA enrichment of interactor (log2) [26]: 7.88 | PRISMA enrichment of interactor (log2) [27]: 5.45 | PRISMA enrichment of interactor (log2) [28]: 8.64 | PRISMA enrichment of interactor (log2) [29]: 5.55 | PRISMA enrichment of interactor (log2) [30]: 6.16 | PRISMA enrichment of interactor (log2) [31]: 5.43

B3: CUL5 (peptide)
chain: SIRRSGLPERVHEVF
PRISMA enrichment of interactor (log2) [32]: 4.5 | PRISMA enrichment of interactor (log2) [33]: 10.3 | PRISMA enrichment of interactor (log2) [34]: 6.11 | PRISMA enrichment of interactor (log2) [35]: 4.18 | PRISMA enrichment of interactor (log2) [36]: 5.11 | PRISMA enrichment of interactor (log2) [37]: 4.67 | PRISMA enrichment of interactor (log2) [38]: 4.82 | PRISMA enrichment of interactor (log2) [39]: 5.05 | PRISMA enrichment of interactor (log2) [40]: 7 | PRISMA enrichment of interactor (log2) [41]: 4.33 | PRISMA enrichment of interactor (log2) [42]: 6.7 | PRISMA enrichment of interactor (log2) [43]: 4.55 | PRISMA enrichment of interactor (log2) [44]: 5.38 | PRISMA enrichment of interactor (log2) [45]: 6.64 | PRISMA enrichment of interactor (log2) [46]: 4.61 | PRISMA enrichment of interactor (log2) [47]: 7.01 | PRISMA enrichment of interactor (log2) [48]: 4.82 | PRISMA enrichment of interactor (log2) [49]: 4.02 | PRISMA enrichment of interactor (log2) [50]: 7.36 | PRISMA enrichment of interactor (log2) [51]: 5.03
